Reference: PubChem BioAssay AID1159594 (NIAID, 2016)
The whole screen tested 756 reagents; shown is an unselected part. 130 of all reagents (17%) were called active. 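Active calls cover both falls and rises of reporter activity; each row reflects one siRNA, not a gene-level verdict.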 Entries without a mark were called inactive. The numbers tell different reagents against one gene apart. Not given: the amount of reagent.

- Purpose: 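Genes required for a TNF reporter response to diacyl lipopeptide stimulation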
- Cell system: human THP-1 B5 reporter cells, PMA-differentiated into macrophage-like cells
- Reagents: single siRNA against human genes
- Duration: 48 to 72 hours after siRNA transfection; ligand exposure 4 hours
- Conditions: Pam2CSK4 (TLR2/6 agonist) stimulation for 4 hours before lysis; dose not given
- Read-out: 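Robust z-score, relative to negative controls, of the firefly/renilla ratio from a TNF promoter reporter, after per-plate median/MAD scaling, mean of replicate screens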
- Direction: TNF reporter z-score: higher = stronger TNF promoter reporter activity
- Call rule: 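The depositor sorts siRNAs into z-score bands with cut-offs of 2.5, 2, 1.5 and 1; grade 50 and above, meaning |z| of 1.5 or more, counts as active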
- Meaning of the calls: active = z-score beyond ±1.5 (either direction); inactive = z-score within ±1.5

RELB (RELB proto-oncogene, NF-kB subunit) #1 gave TNF reporter z-score, replicate mean 0.277.
RELB (RELB proto-oncogene, NF-kB subunit) #2 showed TNF reporter z-score, replicate mean -0.166.
Against RELB (RELB proto-oncogene, NF-kB subunit) #3 the deposit lists TNF reporter z-score, replicate mean 0.429.
For RELB (RELB proto-oncogene, NF-kB subunit) #4, the values are TNF reporter z-score, replicate mean 0.137.
Silencing of RELB (RELB proto-oncogene, NF-kB subunit) #5 came out at: TNF reporter z-score, replicate mean 0.0958.
RELB (RELB proto-oncogene, NF-kB subunit) #6 showed TNF reporter z-score, replicate mean 0.711.
Knock-down of AKT3 (AKT serine/threonine kinase 3) #1 came out at: TNF reporter z-score, replicate mean 0.432.
AKT3 (AKT serine/threonine kinase 3) #2 showed TNF reporter z-score, replicate mean -0.139.
Knock-down of AKT3 (AKT serine/threonine kinase 3) #3 gave: TNF reporter z-score, replicate mean -0.263.
With knock-down of AKT3 (AKT serine/threonine kinase 3) #4 the results were TNF reporter z-score, replicate mean -1.74 (active).
Depletion of AKT3 (AKT serine/threonine kinase 3) #5 resulted in: TNF reporter z-score, replicate mean -0.628.
For AKT3 (AKT serine/threonine kinase 3) #6 the deposit lists TNF reporter z-score, replicate mean -0.0999.

No new results follow: an excerpt of the list.
RELB (RELB proto-oncogene, NF-kB subunit) #4 | TNF reporter z-score, replicate mean = 0.137
RELB (RELB proto-oncogene, NF-kB subunit) #5 | TNF reporter z-score, replicate mean = 0.0958
RELB (RELB proto-oncogene, NF-kB subunit) #6 | TNF reporter z-score, replicate mean = 0.711
AKT3 (AKT serine/threonine kinase 3) #1 | TNF reporter z-score, replicate mean = 0.432

Next records:
Against UBE2N (ubiquitin conjugating enzyme E2 N) #1, the values are TNF reporter z-score, replicate mean 0.337.
UBE2N (ubiquitin conjugating enzyme E2 N) #2 gave TNF reporter z-score, replicate mean -1.49.
With knock-down of UBE2N (ubiquitin conjugating enzyme E2 N) #3, the screen gave TNF reporter z-score, replicate mean 0.869.
Against UBE2N (ubiquitin conjugating enzyme E2 N) #4, the values are TNF reporter z-score, replicate mean -0.521.
Knock-down of UBE2N (ubiquitin conjugating enzyme E2 N) #5 resulted in: TNF reporter z-score, replicate mean -0.63.
After knock-down of UBE2N (ubiquitin conjugating enzyme E2 N) #6, the screen gave TNF reporter z-score, replicate mean 0.269.
With knock-down of IRF7 (interferon regulatory factor 7) #1, the screen gave TNF reporter z-score, replicate mean -1.04.
Silencing of IRF7 (interferon regulatory factor 7) #2 came out at: TNF reporter z-score, replicate mean -1.57 (active).
IRF7 (interferon regulatory factor 7) #3 gave TNF reporter z-score, replicate mean -0.843.
For IRF7 (interferon regulatory factor 7) #4, the values are TNF reporter z-score, replicate mean -0.615.
After knock-down of IRF7 (interferon regulatory factor 7) #5, the screen gave TNF reporter z-score, replicate mean -1.77 (active).
With knock-down of IRF7 (interferon regulatory factor 7) #6 the results were TNF reporter z-score, replicate mean -1.21.
